The results are deposited in PubChem (AID1159506; NCATS, 2015).

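Luminescence from an EWS-FLI1 target-promoter (NR0B1) reporter, set against a CMV-promoter reporter, two days after silencing single genes in TC32 Ewing sarcoma cells. Each siRNA was applied at 20 nM. A z-score of the log NR0B1-over-CMV signal, less the median of siRNAs with the same seed; more negative means a stronger specific loss of the NR0B1 reporter.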

The strongest results of the screen are mostly left out here. Sequences are the guide (antisense) strand, without overhang.

| strand | target gene | seed-corrected z-score |
|---|---|---|
| `UGAGUAAUGUUGUACAAGC` | FYN | -0.135 |
| `AAAACGACUGUAAACACGC` | FAM83B | -1.242 |
| `UGUCUGCUGAAAGCGAUGG` | DLX6 | -0.9166 |
| `UAUAGAACUCUUCUCGCUC` | ATP6V1D | -0.5943 |
| `UCCUCCUUUACUACUUUGG` | LYVE1 | 0.6573 |
| `UAUUCCAUCAUGUUAUUCG` | CHIC2 | 0.6613 |
| `UUCUGUGCAAACGUAGGUG` | MARK4 | 0.3365 |
| `UUAGAAGCUUGUAAUACAC` | DENND1B | 0.2556 |
| `UGCAGUUCAAGAUUGUCUG` | OR5T2 | 1.392 |
| `UUGUAUUUAUGAACUUUCU` | RASSF3 | 1.115 |
| `UACGUUACAUACGAGAGCC` | USP24 | -0.01584 |
| `AUUGUUAAAAUCCAUAUCU` | CAPNS2 | 0.4872 |
| `UAACUGGUUGAUGUCAAGG` | PCBP1-AS1 | -0.6491 |
| `AUCCCGCUCAUAUUCCUCC` | C11orf87 | -1.246 |
| `UCCUCUCGAAACACUUUGC` | PNMA6B | 0.8542 |
| `UUCUUUACGUGCUUUUCUC` | C1orf116 | 1.574 |
| `UUUCCGUAUAUAAAGUAGC` | IL15 | -0.02493 |
| `UCUUCAUUAGCCGUUGUGC` | EBAG9 | -0.07263 |
| `UUGUUGACGACUUCCAAUC` | AFG3L2 | -0.641 |
| `UAAGUGCUGACCUUUAAUC` | GSTT1 | 0.06771 |
| `AUACACUCAGAAUCAUCCC` | LEAP2 | 0.5174 |
| `UAGGAAUAAACCAUGAUCC` | ZNF806 | 0.6821 |
| `UCACGUAAUUUUAAAACGG` | TOPAZ1 | 0.6555 |
| `UCUCGUUGAACAUGUAGGC` | TRPC7 | 0.01964 |
| `UCCUCAAUUUGCCUUUGCC` | HRH1 | -0.009243 |
| `UGUUGCUUCAUUCCACCCU` | C7orf69 | -0.8366 |
| `UUUUGCAACUGACUGAUGC` | CYP7B1 | 0.4209 |
| `UCUUAUUGUAGUAAUAUCU` | ETV3L | 0.1786 |
| `UCAUUGUCACUGAUCUCUG` | PHLDB1 | -0.04834 |
| `AAAGCUCUGGUUUCCAAUG` | CPN2 | 0.4368 |
| `UACUGUUGCACUCAAACUC` | GJB7 | -0.1114 |
| `UCAGUGACCACAAAGGUAC` | OR5D18 | 0.1109 |
| `AUAGCAAUACACUGAAUGG` | CHAC2 | 0.02134 |
| `AAAGAAACCAUUUGUAGAC` | RNF175 | -0.4027 |
| `UGAAUUUUAAAUAUCCUCA` | CLDN6 | 0.5439 |
| `UUCUCUUUAAUCCUCUUUC` | DECR2 | -0.1555 |
| `UCUUGUCCCAGCGGUAGAC` | SFRP5 | -0.2812 |
| `UGAGUUUAGAAGUGCAUCC` | AKR1D1 | -0.5361 |
| `UUCCUCUCCAUCACAUUCU` | RCC1 | 0.3012 |
| `UUCUGCAUCAGGUGGAUCU` | SYT2 | -1.228 |
| `AGGAGUACCAUCUUCAACC` | ADAMTS20 | 0.6149 |
| `AUCGAACUAAACACUGAUC` | ARID4A | -0.2959 |
| `UCUGCUGUAGGGAAGUGCG` | INSM2 | -0.2736 |
| `ACUGGUUCCAGAUAUUCUC` | BDKRB1 | -0.5455 |
| `UAGAUGAUCAGGACCAGGG` | TEDDM1 | 0.5536 |
| `UCCACUUUCUCUUAUAGCC` | MRRF | -0.1252 |

Once more, the final 3:

| strand | target gene | seed-corrected z-score |
|---|---|---|
| `ACUGGUUCCAGAUAUUCUC` | BDKRB1 | -0.5455 |
| `UAGAUGAUCAGGACCAGGG` | TEDDM1 | 0.5536 |
| `UCCACUUUCUCUUAUAGCC` | MRRF | -0.1252 |